Earlier results on 1 compound are cited in publication PMC6033897, “Characterization and Validation of a Human 3D Cardiac Microtissue for the Assessment of Changes in Cardiac Pathology” (Scientific Reports, 2018).

Where a name gives a salt, the structure may show the parent alone.

The conditions of the series: total Cmax, therapeutically relevant maximum total plasma concentration; source not given; cited from earlier work.

Take `CCCCc1oc2ccccc2c1C(=O)c1cc(I)c(OCCN(CC)CC)c(I)c1` [Amiodarone HCl]: the Cmax was 3.02 µM.

For orientation: Cmax means the highest concentration seen after dosing.
